The values below come from PubChem BioAssay AID493073 (Broad Institute, 2011).

Structures are written as SMILES. In all, about 1,200 compounds went through this assay and about 810 (68%) were called active. How the calls were made is not given here. So high a share suggests a set chosen from earlier hits. The entries are a selection whose mix differs from that of the whole data set. Potency and affinity values are given separately.

This test is described as follows: TRPM1 promoter luciferase signal decrease, dose response, MITF inhibitor project, cell-based, SK-MEL-5, cherry-picked, set 3 (AID 493073). To be noted: SK-MEL-5 TRPM1 promoter luciferase, 24 h; at 35 µM (top of the series).
For the molecule `CCOC(=O)c1c(-n2c(C)cc(C=C3C(=O)NC(=S)NC3=O)c2C)sc2c1CCCC2`, the activity change, negative = inhibition was inactive: -87.7%.
With `NC(Cc1nc2ccccc2[nH]1)c1ccc(Cl)cc1` (stereo not given) the figure was inactive: 129%.
Next, `Cc1cc(C(=O)Nc2ccc3c(c2)OCCO3)nn1C(C)(C)C`: inactive: 88.6%; `NCCc1ccc(OCc2ccccc2)c(OCc2ccccc2)c1`: inactive: -98.5%; `Cc1ccc(N2C(=O)NC(=O)/C(=C\C=C\c3ccco3)C2=O)cc1`: inactive: -59.3%.
